Source: publication PMC3510032
No constants are given. Whether binding was seen depends on the method and setting. Binding can be weak; no strength is given. Where a sequence is shown, tags or fusion partners need not be part of it.

T1: GST-Su(Hw) (Drosophila) (UniProt P08970)
T1 sequence: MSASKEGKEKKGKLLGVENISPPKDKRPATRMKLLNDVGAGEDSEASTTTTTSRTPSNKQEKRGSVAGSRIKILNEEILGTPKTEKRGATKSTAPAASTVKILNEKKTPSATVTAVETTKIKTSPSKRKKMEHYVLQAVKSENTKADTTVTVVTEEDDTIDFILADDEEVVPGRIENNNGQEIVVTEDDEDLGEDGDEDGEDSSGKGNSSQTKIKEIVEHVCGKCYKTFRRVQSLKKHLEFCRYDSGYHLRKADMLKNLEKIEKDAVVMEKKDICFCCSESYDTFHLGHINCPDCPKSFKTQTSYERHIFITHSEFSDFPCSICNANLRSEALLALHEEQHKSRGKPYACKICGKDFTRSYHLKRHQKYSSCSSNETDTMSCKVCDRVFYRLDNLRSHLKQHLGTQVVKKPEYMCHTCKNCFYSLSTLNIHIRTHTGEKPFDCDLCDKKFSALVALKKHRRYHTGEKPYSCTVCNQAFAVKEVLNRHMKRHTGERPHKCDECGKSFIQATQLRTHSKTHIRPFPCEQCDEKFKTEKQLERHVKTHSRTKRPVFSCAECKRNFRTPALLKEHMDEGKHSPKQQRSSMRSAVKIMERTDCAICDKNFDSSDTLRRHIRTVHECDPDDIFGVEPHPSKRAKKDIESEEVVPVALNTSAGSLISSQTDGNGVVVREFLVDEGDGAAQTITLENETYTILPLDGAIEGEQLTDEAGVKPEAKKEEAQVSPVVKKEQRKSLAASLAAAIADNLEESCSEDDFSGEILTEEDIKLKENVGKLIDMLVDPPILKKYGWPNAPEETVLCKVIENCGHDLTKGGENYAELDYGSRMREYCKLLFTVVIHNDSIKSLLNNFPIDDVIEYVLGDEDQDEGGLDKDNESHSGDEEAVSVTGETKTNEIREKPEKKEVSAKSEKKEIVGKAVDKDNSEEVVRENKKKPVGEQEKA


Tests used:
[1] = target: T1, GST-Su(Hw) (Drosophila); experiment: pull-down; 2 µg GST or GST fusion protein immobilised on Glutathione-Agarose, 35 µg soluble His-Mod(mdg4)2.2 in 350 µL PBSMT (137 mM NaCl, 250 mM MgCl2, 0.3% Triton X-100, 1 mM DTT, 100 mg/mL BSA), 4°C, 2 h, 5 washes; bound protein detected by Western blotting; both purified
[2] = target: GST-Mod(mdg4)2.2 (Drosophila); experiment: pull-down; GST or GST fusion protein immobilised on Glutathione-Agarose, soluble His-Su(Hw) in HBSM (50 mM HEPES pH 6.7, 150 mM NaCl, 5 mM KCl, 2.5 mM MgCl2) with 0.3% Triton-X 100, 0.2 M KCl, 1 mM DTT, 100 mg/mL BSA, 4°C, 2 h; bound protein detected by Western blotting; both purified
[3] = target: GST-Shep isoform E (Drosophila (Oregon R)); experiment: as above
[4] = target: GST-Shep isoform B/D (Drosophila (Oregon R)); experiment: as above
[5] = target: GST-Shep isoform A (Drosophila (Oregon R)); experiment: as above

Molecule	binding [1]	binding [2]	binding [3]	binding [4]	binding [5]
His-Mod(mdg4)2.2 (Drosophila)	binds	–	–	–	–
His-Su(Hw) (protein, UniProt P08970 1-941) MSASKEGKEKKGKLLGVENISPPKDKRPATRMKLLNDVGAGEDSEASTTTTTSRTPSNKQEKRGSVAGSRIKILNEEILGTPKTEKRGATKSTAPAASTVKILNEKKTPSATVTAVETTKIKTSPSKRKKMEHYVLQAVKSENTKADTTVTVVTEEDDTIDFILADDEEVVPGRIENNNGQEIVVTEDDEDLGEDGDEDGEDSSGKGNSSQTKIKEIVEHVCGKCYKTFRRVQSLKKHLEFCRYDSGYHLRKADMLKNLEKIEKDAVVMEKKDICFCCSESYDTFHLGHINCPDCPKSFKTQTSYERHIFITHSEFSDFPCSICNANLRSEALLALHEEQHKSRGKPYACKICGKDFTRSYHLKRHQKYSSCSSNETDTMSCKVCDRVFYRLDNLRSHLKQHLGTQVVKKPEYMCHTCKNCFYSLSTLNIHIRTHTGEKPFDCDLCDKKFSALVALKKHRRYHTGEKPYSCTVCNQAFAVKEVLNRHMKRHTGERPHKCDECGKSFIQATQLRTHSKTHIRPFPCEQCDEKFKTEKQLERHVKTHSRTKRPVFSCAECKRNFRTPALLKEHMDEGKHSPKQQRSSMRSAVKIMERTDCAICDKNFDSSDTLRRHIRTVHECDPDDIFGVEPHPSKRAKKDIESEEVVPVALNTSAGSLISSQTDGNGVVVREFLVDEGDGAAQTITLENETYTILPLDGAIEGEQLTDEAGVKPEAKKEEAQVSPVVKKEQRKSLAASLAAAIADNLEESCSEDDFSGEILTEEDIKLKENVGKLIDMLVDPPILKKYGWPNAPEETVLCKVIENCGHDLTKGGENYAELDYGSRMREYCKLLFTVVIHNDSIKSLLNNFPIDDVIEYVLGDEDQDEGGLDKDNESHSGDEEAVSVTGETKTNEIREKPEKKEVSAKSEKKEIVGKAVDKDNSEEVVRENKKKPVGEQEKA	–	binds	binds	binds	binds
